PMC12431657, “Discovery and mechanistic insights of dibenzoylmethane as a broad spectrum inhibitor of coronavirus” (PLOS Pathogens, 2025)
Structures can show the parent of a compound that is named as a salt. Where two headings read alike, the source gives them in different places. About 60 (2%) of roughly 3,300 compounds showed an effect of 50% or more. Some of the results follow.

Tested on: HCoV-OC43
Set-up: species or system RD; HTS, protection from HCoV-OC43 induced cell death, luminescent cell viability (CellCounting-Lite 2.0), inhibition rate
Settings: 24 h post infection, 1 h compound pre-incubation, 10 µM, inhibitor

Row | Compound | OC43 Inhibition rate | OC43 Inhibition rate (OC43 Inhibition rate, 24 h)
1 | CCC(=O)C(C)=O [2,3-Pentanedione] | -0.2% | –
2 | C=C(C(=O)c1c(OC)cc2c(c1OC)OCO2)c1ccccc1O [Biliatresone] | 2.7% | –
3 | CC1NC(=O)CNC1=O (stereo not drawn) [Cyclo(Ala-Gly)] | -0.2% | –
4 | C=C(C)[C@@H]1CC=C(C)CC1 [(-)-Limonene] | -0.1% | –
5 | O=C1CCCCN1 [2-Piperidone] | 0.6% | –
6 | CC(C)NCC(O)COc1cccc2ccccc12 (stereo not drawn) [Propranolol] | – | 36.7%
7 | O=C(O)c1ccc(O)c(O)c1 [Protocatechuic acid] | 0.2% | –
8 | CC(C)=C/C=C1\O[C@@H]2CC(C)=CC(=O)[C@@H]2[C@]1(C)O [Bisabolangelone] | -1.6% | –
9 | CC1(C)C=Cc2c(ccc(-c3coc4cc(O)ccc4c3=O)c2O)O1 [Glabrone] | -2.5% | –
10 | Cc1c2ccncc2c(C)c2c1[nH]c1ccccc12 [Ellipticine (hydrochloride)] | 30.7% | –
11 | CC(=O)O[C@H]1CC[C@]2(C)C3=C(CC[C@H]2C1(C)C)[C@]1(C)CC[C@H]([C@@H](CCC=C(C)C)C(=O)O)[C@@]1(C)CC3 [Tsugaric acid A] | -1.8% | –
12 | CC(C)c1ccc(C(=O)O)cc1 [4-Isopropylbenzoic acid] | -0.4% | –
13 | CC(=O)O[C@H]1[C@H]2[C@H]([C@@H]3[C@H]4OC(=O)[C@@](C)(O)[C@@]5(C)C(=O)C[C@@H](C)[C@@H]([C@@H]45)[C@@]3(C)[C@H]1OC(C)=O)[C@@H](OC(C)=O)C(=O)[C@H]1C[C@@H]3O[C@@H]3[C@H](OC(C)=O)[C@]21C [Taccalonolide C] | -2.3% | –
14 | COC(=O)C1=CC[C@@]23CC[C@@H]([C@@](C)(/C=C/C=C(\C)C(=O)O)OC2=O)[C@@]3(O)CC1 [Pseudolaric Acid C] | 1.1% | –
15 | C[C@@H](CC[C@@]1(O)O[C@H]2C[C@H]3[C@@H]4CC[C@@H]5C[C@@H](O[C@@H]6O[C@H](CO)[C@H](O)[C@H](O)[C@H]6O[C@@H]6O[C@H](CO)[C@@H](O)[C@H](O)[C@H]6O)CC[C@]5(C)[C@H]4CC[C@]3(C)[C@H]2[C@@H]1C)CO[C@@H]1O[C@H](CO)[C@@H](O)[C@H](O)[C@H]1O [Timosaponin BII] | 0.5% | –
16 | CC(C)=CCc1c(-c2ccc(O)cc2O)oc2c(CC=C(C)C)c(O)cc(O)c2c1=O [Mulberrin] | 51.7% | –
17 | C=CCc1ccc(O)c(O)c1 [4-Allylcatechol] | 1% | –
18 | CC1(C)CC[C@]2(C(=O)O)CC[C@]3(C)C(=CC[C@@H]4[C@@]5(C)CC[C@H](O[C@@H]6O[C@H](C(=O)O)[C@@H](O)[C@H](O[C@@H]7OC[C@@H](O)[C@H](O)[C@H]7O)[C@H]6O)C(C)(C)[C@@H]5CC[C@]43C)[C@@H]2C1 [Momordin Ic] | -0.6% | –
19 | Cc1cc(O[C@@H]2O[C@H](CO)[C@@H](O)[C@H](O)[C@H]2O)c2c(c1)C(=O)c1cccc(O)c1C2=O [Chrysophanein] | 2.2% | –

Row | Compound | OC43 Inhibition rate | OC43 Inhibition rate (OC43 Inhibition rate, 24 h)
20 | C[C@H]1O[C@H](O[C@H]2[C@H](O)[C@@H](O)[C@@H](O[C@H]3[C@H](O)[C@@H](O)C(O)O[C@@H]3CO)O[C@@H]2CO)[C@H](O)[C@@H](O)[C@@H]1N[C@H]1C=C(CO)[C@@H](O)[C@H](O)[C@H]1O (stereo partly drawn) [Acarbose] | -2.8% | –
21 | c1cncc(C2CCCCN2)c1 (racemic) [(±) Anabasine] | -0.1% | –
22 | COc1cc(/C=C/C(=O)O)ccc1O [(E)-Ferulic acid] | – | -0.7%
23 | N#CCCN [β-Aminopropionitrile] | -0.8% | –
24 | CC1(C)CC[C@]2(C(=O)O)CC[C@]3(C)C(=CC[C@@H]4[C@@]5(C)CC[C@H](O[C@@H]6OC[C@H](O)[C@H](O)[C@H]6O)[C@@](C)(CO)[C@@H]5CC[C@]43C)[C@@H]2C1 [Cauloside A] | -3.8% | –
25 | C[C@H]1CC[C@@H]2[C@@H](C)[C@H]3[C@H](C[C@H]4[C@@H]5CC=C6C[C@@H](O)CC[C@]6(C)[C@H]5CC[C@]34C)N2C1 [Solanidine] | -0.2% | –
26 | CC(C)=CCc1c(-c2ccc(O)cc2O)oc2c3c(cc(O)c2c1=O)OC(C)(C)C=C3 [Morusin] | 5.8% | –
27 | C[C@H](CCC(=O)O)[C@H]1CC[C@H]2[C@@H]3C(=O)C[C@@H]4C[C@H](O)CC[C@]4(C)[C@H]3CC[C@]12C [7-Ketolithocholic acid] | -0.3% | –
28 | COc1cc2c3c(c1OC)-c1ccccc1C[C@H]3NCC2 [N-Nornuciferine] | 12.4% | –
29 | CC/C=C/CC1C(=O)CCC1CC(=O)OC (stereo not drawn) [Methyl 2-(3-oxo-2-(pent-2-en-1-yl)cyclopentyl)acetate] | 1.5% | –
30 | COC[C@@H]1Cc2cc(OC)c3c(c2[C@H](c2ccc(OC)c(OC)c2)[C@H]1COC)OCO3 [Hypophyllanthin] | 11.3% | –
31 | COc1cc(C(=O)OCCCCNC(=N)N)cc(OC)c1O [Leonurine] | – | -0.2%
32 | COc1cc(/C=C/C(=O)O[C@H]2CC[C@]34C[C@]35CC[C@]3(C)[C@@H]([C@H](C)CCC=C(C)C)CC[C@@]3(C)[C@@H]5CC[C@H]4C2(C)C)ccc1O [γ-Oryzanol] | -0.7% | –
33 | CC(=O)O[C@@H]1[C@@H](O)[C@H](O[C@H]2CC[C@]34C[C@]35CC[C@]3(C)[C@@H]([C@@]6(C)CC[C@@H](C(C)(C)O)O6)[C@@H](O)C[C@@]3(C)[C@@H]5C[C@H](O[C@@H]3O[C@H](CO)[C@@H](O)[C@H](O)[C@H]3O)[C@H]4C2(C)C)OC[C@H]1O [Isoastragaloside II] | -0.2% | –
34 | CC(=O)OCC(=O)[C@@]1(O)CC[C@H]2[C@@H]3CCC4=CC(=O)CC[C@]4(C)[C@H]3[C@@H](O)C[C@@]21C [Hydrocortisone acetate] | 1.1% | –
35 | CCc1ccc(O)cc1 [4-Ethylphenol] | 0.8% | –
36 | O=C[C@H](O)[C@@H](O)[C@H](O)[C@H](O)C(=O)O [D-Glucuronic acid] | -0.5% | –
37 | CN1c2ccccc2C(=O)N2CCc3c([nH]c4ccccc34)C21 (racemic) [(±)-Evodiamine] | -0.6% | –
38 | CC(=O)OC/C=C/c1ccccc1 [Cinnamyl acetate] | -0.2% | –

Row | Compound | OC43 Inhibition rate | OC43 Inhibition rate (OC43 Inhibition rate, 24 h)
39 | O=C1Cc2cc(O)ccc2N1 [5-Hydroxyoxindole] | 0.2% | –
40 | CCCCCCCCCCCCCCCC(=O)OC/C=C(C)/C=C/C=C(C)/C=C/C1=C(C)CCCC1(C)C [Retinyl palmitate] | 9.9% | –
41 | COc1ccc(-c2cc(=O)c3c(O)c(OC)c(OC)cc3o2)cc1O [Eupatorin] | 6.5% | –
42 | O=C(O)CCCCCCCC(=O)O [Azelaic acid] | -0.1% | –
43 | C=C1CC[C@@H]2[C@](C)(CO)[C@H](O)CC[C@@]2(C)[C@@H]1CCC1=CCOC1=O [Deoxyandrographolide] | – | 2.2%
44 | CC(=O)OCC(=O)[C@@]1(O)CC[C@H]2[C@@H]3CCC4=CC(=O)C=C[C@]4(C)[C@@]3(Cl)[C@@H](Cl)C[C@@]21C [Dichlorisone acetate] | -0.2% | –
45 | CCCCCCCCCCCCCCCCCCCCCCCCC [Pentacosane] | -0.4% | –
46 | C[C@H]1O[C@@H](O[C@@H]2CC[C@@]3(C)[C@@H](CC[C@]4(C)[C@@H]3C=C[C@]35OC[C@@]6(CCC(C)(C)C[C@H]63)[C@@H](O)C[C@]54C)[C@@]2(C)CO)[C@H](O)[C@@H](O)[C@H]1O (stereo in doubt) [Prosaikogenin G] | -5.3% | –
47 | OC[C@H]1O[C@@H](n2cnc3c(O)nc(O)nc32)[C@H](O)[C@@H]1O [Xanthosine] | 2.4% | –
48 | COc1cc2c(c(OC)c1OC)C(=O)c1c(cc(C)c(O)c1OC)C2=O [Chrysoobtusin] | 0.7% | –
49 | CCCCCCCCCCCCCCCCCCC(=O)O [Nonadecanoic acid] | -0.5% | –
50 | Nc1nc2c(ncn2[C@@H]2O[C@H](COP(=O)(O)OP(=O)(O)OC3O[C@H](CO)[C@@H](O)[C@H](O)[C@@H]3O)[C@@H](O)[C@H]2O)c(=O)[nH]1 (stereo partly drawn) [GDP-D-mannose (disodium)] | 0.3% | –
51 | N#C/C=C1/C=C[C@@H](O)[C@H](O)[C@H]1O[C@@H]1O[C@H](CO)[C@@H](O)[C@H](O)[C@H]1O [Lithospermoside] | -4.6% | –
52 | COc1c(O[C@@H]2O[C@H](CO)[C@@H](O)[C@H](O)[C@H]2O)cc2oc(-c3ccc(O)cc3)cc(=O)c2c1O [Homoplantaginin] | 0.5% | –
53 | CC1(C)CC[C@]2(C(=O)O)CC[C@]3(C)C(=CC[C@@H]4[C@@]5(C)C[C@@H](O)[C@H](O)C(C)(C)[C@@H]5CC[C@]43C)[C@@H]2C1 [Maslinic acid] | -2.3% | –
54 | C[C@@H]1O[C@@H](OC[C@H]2O[C@@H](Oc3c(-c4ccc(O)c(O)c4)oc4cc(O)cc(O)c4c3=O)[C@H](O)[C@@H](O)[C@@H]2O)[C@H](O)[C@H](O)[C@H]1O [Rutin] | – | -0.7%
55 | COc1cc([C@@H]2c3cc4c(cc3[C@@H](O[C@@H]3O[C@@H]5CO[C@@H](C)O[C@H]5[C@H](O)[C@H]3O)[C@H]3COC(=O)[C@H]23)OCO4)cc(OC)c1O [Etoposide] | -10.6% | –
56 | C[C@@]12C[C@H](c3ccoc3)O[C@@]13C[C@H](OC3=O)[C@H]1[C@H]2C[C@@H]2C[C@H]1C(=O)O2 [Diosbulbin B] | -0.9% | –
57 | Oc1cc(O)c2c(c1)O[C@@H](c1ccc(O)c(O)c1)[C@H](O)C2 [(-)-Catechin] | 2.1% | –
